# Library screen at single concentrations

Each number is a percent effect as filed. The controls that fix the scale are not given in the record; negative values are as filed. The compounds are a random part of those screened.

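Assay of Toxoplasma gondii numbers, read through their beta-galactosidase reporter with a colour substrate. Tested at 50 µM. The record gives no direction; the compounds picked for IC50 retests had high values, so higher reads as fewer parasites. Of about 18,000 compounds tested this way, about 170 (0.94%) reached 50% or more in at least one test.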

SMILES,percent effect
Brc1cc2c(cc1CN1CCCNCC1)OCO2,-4.823%
CCc1ccsc1CNC(=O)CSc1nc(C)n[nH]1,4.667%
CN(CCn1cccn1)C(=O)c1ccc(CN)cc1,-10.47%
CCc1n[nH]c(=O)n1CC,-11.45%
NCc1cc(C(N)=O)co1,9.125%
NC(=O)c1cc(S(=O)(=O)NCCCc2ccco2)cs1,-4.598%
CCN(CC)C(=O)CNc1ccc(Cl)c(C#N)n1,-10.96%
CN(CCOc1ccc(F)cc1)CC(=O)N(C)C,-2.453%
O=C(NCc1nnc2n1CCC2)c1ccccc1,1.554%
CN(C)c1ccc(C(=O)NCC2CCCO2)cc1 (centres unmarked),-0.8468%
CNC(=O)CSCc1ccc2ccccc2n1,15.55%
CCCc1ccc(CN2C[C@H](OCC)[C@@H](O)C2)o1,-7.247%
COc1cc(F)cc(NC(=O)N2CCCC2)c1,8.376%
N#Cc1sccc1N1CCNCC1,-0.8178%
CS(=O)(=O)NCCNc1nc2ccccc2s1,-9.562%
CCC(=O)NCCc1noc(COC)n1,-7.249%
CN1CCOC(CNc2nccs2)C1 (centres unmarked),2.481%
NCc1cccc(S(=O)(=O)NCC(F)(F)F)c1,5.264%
O=C(NC1CCOCC1)c1ccc(Cl)nn1,-4.691%
CN(CC(=O)NCCC#N)Cc1ccccc1Cl,-1.164%
CCO[C@H]1CN(c2nnc(C(C)C)s2)C[C@@H]1O,-4.626%
CC(C)CNC(=O)CCN1C(=O)c2cccnc2C1=O,-13.88%
Cc1cccnc1N(C)C(=O)c1cc(C#N)oc1C,13.93%
COc1nc(CO)c(C)cc1C,-34.6%
Cc1cc(C)n(CC(=O)N(C)CC2(C)CCOCC2)n1,11.44%
CC(NC(=O)c1cc(N(C)C)ccn1)c1ncon1 (centres unmarked),-1.338%
CC1CCN(C(=O)C2CCC(CN)CC2)CC1 (centres unmarked),2.165%
COCCN(CCOC)C(=O)c1cccc(C#N)c1,7.424%
NCCCc1ccccc1F,13.02%
Cc1cccc(OC2CCS(=O)(=O)C2)c1 (centres unmarked),-13.67%
CCOCCC(=O)NC(CC)c1cccc(C)n1 (centres unmarked),18.47%
CN(C)CCNC(=O)c1ccc2c(c1)NC(=O)CO2,-2.725%
NC1CCN(c2ccccc2F)C1 (centres unmarked),0.4156%
N#Cc1ccnc(N2CCNCC2)c1,-13.53%
Cc1nc(CN2CCC(O)(CN3CCCC3)CC2)c[nH]1,-4.153%
CCC(N)c1cnn(CC)c1 (centres unmarked),-19.44%
CC(O)CN1CCN(C(=O)C2CCCC2)CC1 (centres unmarked),-1.325%
Cc1oc2ncn(C)c(=O)c2c1C(=O)N(C)C,4.084%
Cc1ccc(F)cc1C(=O)NCC1CCNCC1,-8.503%
O=C(CN1C(=O)CC2(CCCC2)C1=O)NCC1CC1,11.45%
Cc1nc(=N)cc[nH]1,-6.361%
O=C(OCCC1CCCO1)c1ccncc1 (centres unmarked),-11.72%
NCc1cccc(Oc2ccc(F)cc2)n1,-16.57%
CCc1nccn1CCCNC(=O)Cc1ccncc1,2.822%
CCC1c2cccn2CCN1C(=O)c1snnc1C (centres unmarked),5.266%
CN(C)C(=O)CN1CCCCCCC1,2.176%
CN(C1CCCCC1)S(=O)(=O)N1CCCC1C(N)=O (centres unmarked),-30.81%
CC1CN(C)CCN1C(=O)c1cc(-c2ccco2)[nH]n1 (centres unmarked),38.76%
NCCOCc1cccc(Cl)c1,23.89%
COC(=O)c1cc(F)ccc1CN(C)S(C)(=O)=O,13.77%
COc1ccccc1C(=O)N(C)C1CCN(C)CC1,-5.481%
OCc1cc(C2CC2)n[nH]1,1.78%
O=C(CCc1ccc2[nH]ccc2c1)N1CCC[C@H]1CO,-6.355%
Cc1cccc(N(C)C(=O)CCC(=O)OC(C)(C)C)n1,-2.927%
CCN1CCN(CC2CCNCC2)CC1,-4.274%
CCCNC(=O)C(C)Sc1nnc(C)s1 (centres unmarked),-6.298%
CS(=O)(=O)c1ccc(NC(=O)c2cnsn2)cc1,4.403%
CCS(=O)(=O)N1CCC(C(=O)NCCCN(C)C)CC1,0.7206%
NC(=O)COc1ccc(CNCCn2cccn2)cc1,11.26%
N[C@@H]1C[C@H](O)[C@H]1n1cccn1,9.286%
O=C(c1ccco1)N1CCCN(Cc2cscn2)CC1,8.956%
NC(=O)Cc1ccccc1NC(=O)OCC(F)(F)F,-4.787%
c1coc(-c2ccncc2)c1,-5.74%
NC1CCN(C(=O)c2ccncc2)C1 (centres unmarked),8.037%
COc1ccccc1OCC(C)NS(C)(=O)=O (centres unmarked),-2.289%
COc1cc(-c2nc(CN)no2)cc(OC)c1OC,7.037%
Cc1cc(N2CCOCC2CCO)ncn1 (centres unmarked),-0.9011%
N#Cc1ccccc1OCCNCC1CCCO1 (centres unmarked),13.19%
CC(C)COCC(O)CNc1nnc(C(C)C)s1 (centres unmarked),8.348%

Measurements from “University of Dundee, Small-Polar-MMV Screening Library” (2021), ChEMBL document CHEMBL3988442.